Results from one PubChem assay

Source: PubChem BioAssay AID1159506 (NCATS, 2015).

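Genome-wide siRNA knockdown in TC32 Ewing sarcoma cells, comparing luciferase light from an NR0B1-promoter reporter with a CMV-promoter reporter 48 hours after transfection. Each siRNA was applied at 20 nM. A z-score of the log NR0B1-over-CMV signal, less the median of siRNAs with the same seed; more negative means a stronger specific loss of the NR0B1 reporter.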

This is part of the screen; most of the strongest results are not listed here. Sequences are the guide (antisense) strand, without overhang.

strand: AAAUGAGUUCGAGUCGAUC
target gene: RPL6P1
seed-corrected z-score: -0.6281

strand: UAAUCUUCCUGUAUGGUGC
target gene: MYL12A
seed-corrected z-score: 0.0109

strand: UAGGCUCUAACAGCUCCUG
target gene: C2orf73
seed-corrected z-score: -0.1366

strand: UAUAUCUGUAAGAUUUACC
target gene: ZBTB25
seed-corrected z-score: 0.2342

strand: UUCAGGAUAGUUUAGACUC
target gene: OVCH2
seed-corrected z-score: 0.1971

strand: UGCUGAGUGACAUCGUUCC
target gene: PLK4
seed-corrected z-score: -0.1055

strand: AUCUGGGCAAGAGUGACCG
target gene: RHBDL1
seed-corrected z-score: 1.063

strand: UAUAUCGAAUGAGUGUUUG
target gene: C1orf100
seed-corrected z-score: 0.2768

strand: UAUUGUUCCGGUUUACCUG
target gene: SLC11A2
seed-corrected z-score: 0.216

strand: UUGGAAGUCACAGGUUUGC
target gene: SYT10
seed-corrected z-score: -0.09228

strand: GCUUCCAUCCCAGAAAUCG
target gene: LOC649294
seed-corrected z-score: 0.02138

strand: UUGAUAUCUGAGGAAUUGC
target gene: PTPN12
seed-corrected z-score: 0.01603

strand: UUCUCGAGAAAGUUUGGUC
target gene: CCDC77
seed-corrected z-score: 0.1498

strand: ACUAAGUCAAGUUCUUUAC
target gene: C19orf43
seed-corrected z-score: 0.1587

strand: UACGGGAUGCCUAGAAAUC
target gene: ARSA
seed-corrected z-score: 0.6102

strand: UAAAUUAUGGUAGAGAGCA
target gene: KRTAP4-2
seed-corrected z-score: 0.9166

strand: UUCGCUUCUACCUUAAGUG
target gene: VPS13C
seed-corrected z-score: 0.000836

strand: AUAGGAAUUAAUGUCAUCC
target gene: F9
seed-corrected z-score: -0.1812

strand: UCCCUUAGCAGAAUCCACG
target gene: MLKL
seed-corrected z-score: -0.6624

strand: AAUACGGUUGGCAAGCGGC
target gene: OPA3
seed-corrected z-score: -0.6367

strand: AAUGGGAGAAGGUAGUGUC
target gene: NR1I2
seed-corrected z-score: 0.009147

strand: UCAGGAAUCUCGGUGGAGC
target gene: TCEB1
seed-corrected z-score: -0.6196

strand: ACUUGUACAACAGGAACUG
target gene: MAGEB2
seed-corrected z-score: 1.917

strand: AUCCGAUCAAGAACCUGGG
target gene: CHRNA5
seed-corrected z-score: -1.607

strand: UACACGAUGAAGAAGACGC
target gene: TPCN1
seed-corrected z-score: 0.04162

strand: UGAGUUUUGCAAGCAUUGC
target gene: CDCA7
seed-corrected z-score: 1.207

strand: UGUCUAAUAAGCCUAGAGC
target gene: ZNF10
seed-corrected z-score: -0.5516

strand: AUUGUUGACCCAGAUAACC
target gene: PMEL
seed-corrected z-score: -0.1745

strand: AAACGGUCAGUGAAUAUAC
target gene: SLC16A2
seed-corrected z-score: 0.4337

strand: AACAUCAUAAUCAAGUUGG
target gene: ZFP91
seed-corrected z-score: 0.6

strand: UGUUUUCUAAACUAGAUCU
target gene: CDC42P6
seed-corrected z-score: -1.211

strand: UAUGGGUCUCCUGUAAUCC
target gene: FUBP1
seed-corrected z-score: -0.2397

strand: UGAGUUUCUCACGAAAGUC
target gene: TMEM206
seed-corrected z-score: -0.4975

strand: AUAAGUCGUAGAAUAUUUG
target gene: UBL3
seed-corrected z-score: -0.2373

strand: UAAUUGUCAAAGACAGUAG
target gene: RAC1
seed-corrected z-score: -0.6223

strand: UCUGUAGUACCUUCACUGC
target gene: SGK2
seed-corrected z-score: 0.2534

strand: UUUGGAGCAGGUCUAGAAG
target gene: ISLR
seed-corrected z-score: -0.5724

strand: AUAGGGACACGUCUUACAG
target gene: GRM4
seed-corrected z-score: 0.5211

strand: AUUUUUCACCGAGAGAUGG
target gene: LOC728084
seed-corrected z-score: 0.0464

strand: UAAGUUUUAAUUCCCGGGA
target gene: EPHA6
seed-corrected z-score: 1.055

strand: UUUAUUGAGAGAACGAAUG
target gene: CYP3A7
seed-corrected z-score: 0.1758

strand: UGUUCCUCUAGAAACUUCC
target gene: TRIM10
seed-corrected z-score: -0.6713

strand: UCUGUGGAGGGUGCUAUAG
target gene: FAM26E
seed-corrected z-score: 0.774

strand: UUGGUUAUGUUCUAUUUCC
target gene: HPDL
seed-corrected z-score: -0.00148

strand: AAAACAUCCAAAACCCUCG
target gene: PQLC1
seed-corrected z-score: -0.6336

Repeated from the top, 6 entries:

strand,target gene,seed-corrected z-score
AAAUGAGUUCGAGUCGAUC,RPL6P1,-0.6281
UAAUCUUCCUGUAUGGUGC,MYL12A,0.0109
UAGGCUCUAACAGCUCCUG,C2orf73,-0.1366
UAUAUCUGUAAGAUUUACC,ZBTB25,0.2342
UUCAGGAUAGUUUAGACUC,OVCH2,0.1971
UGCUGAGUGACAUCGUUCC,PLK4,-0.1055